Where a name gives a salt, the structure may show the parent alone. The list shows a part of the results. Many values rest on one well or one pass, so single values are uncertain.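 The three strains are clinical Candida auris isolates from the CDC resistance isolate bank, from clades III, IV and I, grown in RPMI-1640 at 35°C. Growth is background-corrected OD600 relative to vehicle-only wells on the same plate; a hit meant over 50% inhibition in at least two strains plus a plate-corrected B-score above 0.1.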
Columns and labels:
Assay in all cases: growth relative to vehicle control (OD600 ratio) (fraction); higher = less inhibition
Conditions in all cases: 24 h
C. auris AR-384 = test system: C. auris AR-384
C. auris AR-386 = test system: C. auris AR-386
C. auris AR-387 = test system: C. auris AR-387

SMILES	growth (C. auris AR-384; 1 µM)	growth (C. auris AR-384; 10 µM)	growth (C. auris AR-386; 1 µM)	growth (C. auris AR-386; 10 µM)	growth (C. auris AR-387; 1 µM)	growth (C. auris AR-387; 10 µM)
C#CCN(C)Cc1ccccc1 [Pargyline hydrochloride]	0.85	0.87	1.1	1.27	0.84	1.21
O=C1CCc2cc(OCCCCc3nnnn3C3CCCCC3)ccc2N1 [Cilostazol]	1	0.82	0.73	0.63	0.85	0.68
CCN(CC)CCOc1ccc(C(=C(Cl)c2ccccc2)c2ccccc2)cc1 [Clomifene citrate]	0.97	0.85	0.98	0.69	0.65	0.98
Cc1ccc(C(=O)N(CCCN)[C@@H](c2nc3cc(Cl)ccc3c(=O)n2Cc2ccccc2)C(C)C)cc1	0.89	0.73	0.8	1	0.76	0.92
CO[C@H]1C[C@@H]2CC[C@@H](C)[C@@](O)(O2)C(=O)C(=O)N2CCCC[C@H]2C(=O)O[C@H]([C@H](C)C[C@@H]2CC[C@@H](OCCO)[C@H](OC)C2)CC(=O)[C@H](C)/C=C(\C)[C@@H](O)[C@@H](OC)C(=O)[C@H](C)C[C@H](C)/C=C/C=C/C=C/1C [Everolimus (RAD001)]	0.05	0.46	0.27	0.06	0.08	0.05
CN/C(=N\CCSCc1nc[nH]c1C)NC#N [Cimetidine]	0.72	0.87	1.08	0.81	1.32	1.12
CC(C)(O/N=C(\C(=O)N[C@@H]1C(=O)N2C(C(=O)[O-])=C(C[n+]3ccccc3)CS[C@H]12)c1csc(N)n1)C(=O)O [Ceftazidime Pentahydrate]	1.48	1.46	1.25	1.26	1.39	1.13
NC(=O)C(c1ccccc1)(c1ccccc1)[C@@H]1CCN(CCc2ccc3c(c2)CCO3)C1 [Darifenacin HBr]	0.83	0.78	0.78	0.95	1.03	0.67
CCCCC(CC)COC(=O)CC(C(=O)OCC(CC)CCCC)S(=O)(=O)O (stereo not drawn) [Docusate Sodium]	1.13	2.2	0.94	0.97	0.57	1.22
CC(=O)c1cc2c(o1)C(=O)c1ccccc1C2=O [Napabucasin]	1.17	1.01	0.93	0.59	0.81	0.41
OC1(c2ccc(Cl)c(C(F)(F)F)c2)CCN(CCCC(c2ccc(F)cc2)c2ccc(F)cc2)CC1 [Penfluridol]	0.84	0.66	0.7	0.76	0.71	0.44
Cc1cc(C(C)(C)C)cc(C)c1CC1=NCCN1 [Xylometazoline HCl]	0.94	0.75	0.88	0.57	0.59	0.76
CN(C)c1cc(NC(=O)CNC(C)(C)C)c(O)c2c1C[C@H]1C[C@H]3[C@H](N(C)C)C(O)=C(C(N)=O)C(=O)[C@@]3(O)C(O)=C1C2=O [Tigecycline]	0.88	0.85	1.14	1.09	0.98	1.11
CC1=C(C(=O)O)N2C(=O)[C@@H](NC(=O)[C@H](N)c3ccc(O)cc3)[C@H]2SC1 [Cefadroxil hydrate]	0.96	0.91	0.86	0.92	0.72	0.92
CN(C)CCCN1c2ccccc2CCc2ccccc21 [Imipramine HCl]	0.85	0.73	0.93	0.79	0.76	0.75
CCN1CCCC1CNC(=O)c1cc(S(N)(=O)=O)ccc1OC (stereo not drawn) [Sulpiride]	0.69	0.9	0.72	0.79	0.84	0.79
CC1CNc2c(cccc2S(=O)(=O)N[C@@H](CCCNC(=N)N)C(=O)N2CC[C@@H](C)C[C@@H]2C(=O)O)C1 (stereo partly drawn) [Argatroban]	1.06	0.83	0.87	0.93	1	1.08
O=NN(CCCl)C(=O)NCCCl [Carmustine]	0.69	0.66	0.74	0.94	0.69	0.77
O=C1c2ccccc2C(=O)C1c1ccccc1 [Phenindione]	0.88	0.85	1.03	1.15	1.08	0.89
C/C(O)=C(\C#N)C(=O)Nc1ccc(C(F)(F)F)cc1 [Teriflunomide]	0.96	0.9	0.73	1.25	0.92	1.06
CC(C)NCC(O)COc1ccc(CCOCC2CC2)cc1 (stereo not drawn) [Betaxolol HCl]	1.17	1.25	1.14	1.17	0.82	1.03
Cc1c(C)c2c(c(C)c1O)CCC(C)(COc1ccc(CC3SC(=O)NC3=O)cc1)O2 (stereo not drawn) [Troglitazone (CS-045)]	1.09	0.71	0.97	0.76	0.88	0.77
CC1CCc2cc(F)cc3c(=O)c(C(=O)O)cn1c23 (stereo not drawn) [Flumequine]	1.17	0.96	0.9	0.91	0.77	1.1

Copied from the list:
growth (C. auris AR-384; 1 µM) with `CCN(CC)CCOc1ccc(C(=C(Cl)c2ccccc2)c2ccccc2)cc1` [Clomifene citrate] reads 0.97
growth (C. auris AR-386; 10 µM) with `CCCCC(CC)COC(=O)CC(C(=O)OCC(CC)CCCC)S(=O)(=O)O` (stereo not drawn) [Docusate Sodium] reads 0.97

Source: the supplement of paper PMC10470496
